Source: patent publication US11655268B2, “Nucleoside or nucleotide derivatives, and uses thereof” (ST Pharm Co., Ltd., priority 2018, dated 2023)

Assays:
[1] = test system: hCoV (229E); type: cell-based, Human coronavirus hCoV 229E; conditions: CC50/EC50
[2] = test system: FIPV; experiment: Cytopathic effect reduction, FIPV in CRFK cells, MTT; type: cell-based, feline infectious peritonitis virus (FIPV); conditions: CC50/EC50

SMILES: Cc1ccc(C(=O)Nc2ccn([C@@H]3O[C@H](CO)[C@@H](O)C3(F)F)c(=O)n2)nc1 [Example 10, N-(1-((2R,4R,5R)-3,3-difluoro-4-hydroxy-5-(hydroxymethyl)tetrahydrofuran-2-yl)-2-oxo-1,2-dihydropyrimidin-4-yl)-5-methylpicolinamide]
- SI hCoV (229E) [1]: >13.51
- SI FIPV [2]: 4.38

SMILES: Cc1cccnc1C(=O)Nc1ccn([C@@H]2O[C@H](CO)[C@@H](O)C2(F)F)c(=O)n1 [Example 12, N-(1-((2R,4R,5R)-3,3-difluoro-4-hydroxy-5-(hydroxymethyl)tetrahydrofuran-2-yl)-2-oxo-1,2-dihydropyrimidin-4-yl)-3-methylpicolinamide]
- SI hCoV (229E) [1]: >8.20

SMILES: O=C(Nc1ccn([C@@H]2O[C@H](CO)[C@@H](O)C2(F)F)c(=O)n1)c1cccnc1 [Example 1, N-(1-((2R,4R,5R)-3,3-difluoro-4-hydroxy-5-(hydroxymethyl)tetrahydrofuran-2-yl)-2-oxo-1,2-dihydropyrimidin-4-yl)nicotinamide]
- SI hCoV (229E) [1]: >21.74
- SI FIPV [2]: 2.24

SMILES: O=C(Nc1ccn([C@@H]2O[C@H](CO)[C@@H](O)C2(F)F)c(=O)n1)c1ccccn1 [Example 2, N-(1-((2R,4R,5R)-3,3-difluoro-4-hydroxy-5-(hydroxymethyl)tetrahydrofuran-2-yl)-2-oxo-1,2-dihydropyrimidin-4-yl)picolinamide]
- SI hCoV (229E) [1]: >125.0
- SI FIPV [2]: >10.99

SMILES: O=C(Nc1ccn([C@@H]2O[C@H](CO)[C@@H](O)C2(F)F)c(=O)n1)c1ccc(F)cn1 [Example 9, N-(1-((2R,4R,5R)-3,3-difluoro-4-hydroxy-5-(hydroxymethyl)tetrahydrofuran-2-yl)-2-oxo-1,2-dihydropyrimidin-4-yl)-5-fluoropicolinamide]
- SI hCoV (229E) [1]: >41.67
- SI FIPV [2]: >5.56

SMILES: Cc1cccc(C(=O)Nc2ccn([C@@H]3O[C@H](CO)[C@@H](O)C3(F)F)c(=O)n2)n1 [Example 13, N-(1-((2R,4R,5R)-3,3-difluoro-4-hydroxy-5-(hydroxymethyl)tetrahydrofuran-2-yl)-2-oxo-1,2-dihydropyrimidin-4-yl)-6-methylpicolinamide]
- SI hCoV (229E) [1]: >17.24
